Results are given in words; binding and its absence hold for the method and conditions named. Some binding calls cover weakened binding; strength is not graded here. For some of these results: Where a sequence is shown, tags or fusion partners need not be part of it.
Legend:
[1] = target: T1, BMP-CD59a reporter (biotin mimetic peptide fused via (G4S)2G4 to mouse CD59a, GPI-anchored on CHO-S cells) (mouse); assay: FACS on transfected CHO-S cells
T1 sequence (chain, GPI anchor at the C-terminal end of CD59a): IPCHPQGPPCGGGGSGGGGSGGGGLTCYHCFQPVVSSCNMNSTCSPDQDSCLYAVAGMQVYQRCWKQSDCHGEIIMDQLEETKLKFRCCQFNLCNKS

[2] = target: BMP-PAC reporter (BMP, synthetic carrier peptide, IGF-1R transmembrane peptide, (G4S)4, puromycin N-acetyl transferase; on CHO-S cells) (mouse); assay: FACS on stable CHO-S pools labeled with F-SA
[3] = target: BMP-Peptide carrier-TM reporter (BMP, synthetic carrier peptide, IGF-1R transmembrane peptide; on CHO-S cells) (mouse); assay: FACS on stable CHO-S pools labeled with F-SA
[4] = target: T1, BMP-CD59a reporter (biotin mimetic peptide fused via (G4S)2G4 to mouse CD59a, GPI-anchored on CHO-S cells) (mouse); assay: FACS on stable CHO-S pools labeled with F-SA

- binding [1]: binds
- binding [2]: binds
- binding [3]: binds
- binding [4]: binds
Substance: R-Phycoerythrin-conjugated Streptavidin (from UniProt P22629 37-163)

Reference: patent publication US20140011213A1
